Data: PubChem BioAssay AID330 (DTP/NCI, 2004)
The list shows only some results of the screen, not a fair sample: it covers a few groups of compounds. Not every dose and run of a compound is shown. T/C gives the treated animals as a percentage of the vehicle group. For survival time, the PubChem record calls one and a half times the control and up active, and a quarter to a half above the control has no call in these data; cut-offs in other NCI protocols can differ. Schedules are NCI's codes, read here as Q, the interval in days (D) or hours (H), X, the number of doses. Some entries hold several experiments; the results are listed from low to high. Some structures stand for samples that the source files as different forms (salt, stereo form or complex); doses refer to the form tested. Some entries show no survivor count and are marked so; the dose need not have been tolerated. Brackets with × count equal records among those shown.

Test system: P388 leukemia ip, CD2F1 mice, survival T/C
Experiment: NCI In Vivo Anticancer Drug Screen. Data for tumor model P388 Leukemia (intraperitoneal) in CD2F1 (CDF1) mice
Conditions: T/C endpoint: median survival time, higher T/C = longer survival

In the case of O=C(O)CCOc1ccccc1N(CCCl)CCCl, the T/C (dose: 3.13 mg/kg/injection, schedule: Q01DX009 (ip), vehicle: saline sonified) is reported as 142 % of control [survivor count not shown], the T/C (dose: 6.25 mg/kg/injection, schedule: Q01DX009 (ip), vehicle: saline sonified) is reported as 157 % of control [survivor count not shown] and the T/C (dose: 8.0 mg/kg/injection, schedule: Q01DX009 (ip), vehicle: saline sonified) is reported as 195 % of control [survivor count not shown]. For the same compound, the T/C (dose: 12.0 mg/kg/injection, schedule: Q01DX009 (ip), vehicle: saline sonified) was 165 % of control [survivor count not shown], the T/C (dose: 12.5 mg/kg/injection, schedule: Q01DX009 (ip), vehicle: saline sonified) was 161 % of control [survivor count not shown] and the T/C (dose: 18.0 mg/kg/injection, schedule: Q01DX009 (ip), vehicle: saline sonified) was 175 % of control [survivor count not shown]. The T/C (dose: 25.0 mg/kg/injection, schedule: Q04DX003 (ip), vehicle: saline with Tween-80) was 104 % of control [survivor count not shown].
For ClCCN1CCN(CCCl)CC1, the T/C (dose: 0.03 mg/kg/injection, schedule: Q01DX005 (ip), vehicle: saline) was 130 % of control, the T/C (dose: 0.06 mg/kg/injection, schedule: Q01DX005 (ip), vehicle: saline) was 166 % of control and the T/C (dose: 0.12 mg/kg/injection, schedule: Q01DX009 (ip), vehicle: saline) was 110 % of control [survivor count not shown]. For the same compound, the T/C (dose: 0.25 mg/kg/injection, schedule: Q01DX005 (ip), vehicle: saline, evaluated on day 30) was 223 % of control, the T/C (dose: 0.25 mg/kg/injection, schedule: Q01DX005 (ip), vehicle: saline, evaluated on day 45) was 124 % of control and the T/C (dose: 0.25 mg/kg/injection, schedule: Q01DX009 (ip), vehicle: saline) was 120 % of control [survivor count not shown]. For the same compound, the T/C (dose: 0.5 mg/kg/injection, schedule: Q01DX005 (ip), vehicle: saline) was 118 and 138 % of control, the T/C (dose: 0.5 mg/kg/injection, schedule: Q01DX009 (ip), vehicle: saline) was 145 % of control [survivor count not shown] and the T/C (dose: 1.0 mg/kg/injection, schedule: Q01DX005 (ip), vehicle: saline) was 133 and 163 % of control. For the same compound, the T/C (dose: 1.0 mg/kg/injection, schedule: Q01DX009 (ip), vehicle: saline) was 167 % of control [survivor count not shown], the T/C (dose: 2.0 mg/kg/injection, schedule: Q01DX005 (ip), vehicle: saline) was 163 and 209 % of control and the T/C (dose: 2.0 mg/kg/injection, schedule: Q01DX009 (ip), vehicle: saline) was 114 % of control [survivor count not shown]. The T/C (dose: 4.0 mg/kg/injection, schedule: Q01DX005 (ip), vehicle: saline) was 209 % of control, the T/C (dose: 6.0 micrograms/kg/injection, schedule: Q01DX009 (ip), vehicle: saline) was 99 [survivor count not shown] and 104 % of control [survivor count not shown] and the T/C (dose: 12.0 micrograms/kg/injection, schedule: Q01DX009 (ip), vehicle: saline) was 102 % of control [survivor count not shown]. The T/C (dose: 12.5 micrograms/kg/injection, schedule: Q01DX009 (ip), vehicle: saline) was 100 % of control [survivor count not shown], the T/C (dose: 25.0 micrograms/kg/injection, schedule: Q01DX009 (ip), vehicle: saline) was 100 % of control [survivor count not shown] (2×) and the T/C (dose: 50.0 micrograms/kg/injection, schedule: Q01DX009 (ip), vehicle: saline) was 102 [survivor count not shown] and 106 % of control [survivor count not shown]. The T/C (dose: 100.0 micrograms/kg/injection, schedule: Q01DX009 (ip), vehicle: saline) was 107 [survivor count not shown] and 116 % of control [survivor count not shown], the T/C (dose: 125.0 micrograms/kg/injection, schedule: Q01DX009 (ip), vehicle: saline) was 127 % of control [survivor count not shown] and the T/C (dose: 200.0 micrograms/kg/injection, schedule: Q01DX009 (ip), vehicle: saline) was 107 [survivor count not shown] and 111 % of control [survivor count not shown]. The T/C (dose: 250.0 micrograms/kg/injection, schedule: Q01DX009 (ip), vehicle: saline) was 148 % of control [survivor count not shown], the T/C (dose: 500.0 micrograms/kg/injection, schedule: Q01DX009 (ip), vehicle: saline) was 180 % of control [survivor count not shown] and the T/C (dose: 1000.0 micrograms/kg/injection, schedule: Q01DX009 (ip), vehicle: saline) was 216 % of control [survivor count not shown]. For the same compound, the T/C (dose: 2000.0 micrograms/kg/injection, schedule: Q01DX009 (ip), vehicle: saline) was 100 % of control [survivor count not shown].
In the case of BrCCN(CCBr)c1ccccc1, the T/C (dose: 1.56 mg/kg/injection, schedule: Q01DX009 (ip), vehicle: Klucel (hydroxypropylcellulose) (HPC)) is reported as 146 % of control [survivor count not shown], the T/C (dose: 3.13 mg/kg/injection, schedule: Q01DX009 (ip), vehicle: Klucel (hydroxypropylcellulose) (HPC)) is reported as 172 % of control [survivor count not shown] and the T/C (dose: 6.25 mg/kg/injection, schedule: Q01DX009 (ip), vehicle: Klucel (hydroxypropylcellulose) (HPC)) is reported as 133 [survivor count not shown] and 219 % of control [survivor count not shown]. For the same compound, the T/C (dose: 12.5 mg/kg/injection, schedule: Q01DX009 (ip), vehicle: Klucel (hydroxypropylcellulose) (HPC)) was 135 [survivor count not shown] and 169 % of control [survivor count not shown].
O=[N+]([O-])c1cc(Cl)ccc1SCCCl was tested, and the T/C (dose: 100.0 mg/kg/injection, schedule: Q04DX003 (ip), vehicle: Klucel (hydroxypropylcellulose) (HPC)) was 100 % of control, the T/C (dose: 200.0 mg/kg/injection, schedule: Q04DX003 (ip), vehicle: Klucel (hydroxypropylcellulose) (HPC)) was 102 % of control and the T/C (dose: 400.0 mg/kg/injection, schedule: Q04DX003 (ip), vehicle: Klucel (hydroxypropylcellulose) (HPC)) was 93 % of control.
O=P1(N(CCCl)CCCl)NCC2OCCCC2O1 (stereo not given) was tested, and the T/C (dose: 25.0 mg/kg/injection, schedule: Q01DX005 (ip), vehicle: Klucel (hydroxypropylcellulose) (HPC)) was 104 % of control, the T/C (dose: 50.0 mg/kg/injection, schedule: Q01DX005 (ip), vehicle: Klucel (hydroxypropylcellulose) (HPC)) was 100 % of control and the T/C (dose: 100.0 mg/kg/injection, schedule: Q01DX005 (ip), vehicle: Klucel (hydroxypropylcellulose) (HPC)) was 111 % of control.
Oc1cc(O)cc(N(CCCl)CCCl)c1 was tested, and the T/C (dose: 3.12 mg/kg/injection, schedule: Q01DX009 (ip), vehicle: saline) was 100 and 125 % of control, the T/C (dose: 6.25 mg/kg/injection, schedule: Q01DX009 (ip), vehicle: saline) was 90 and 144 % of control and the T/C (dose: 12.5 mg/kg/injection, schedule: Q01DX009 (ip), vehicle: saline) was 93 and 145 % of control. The T/C (dose: 25.0 mg/kg/injection, schedule: Q01DX009 (ip), vehicle: saline) was 90 and 163 % of control, the T/C (dose: 25.0 mg/kg/injection, schedule: Q01DX009 (ip), vehicle: water) was 143 % of control [survivor count not shown] and the T/C (dose: 50.0 mg/kg/injection, schedule: Q01DX009 (ip), vehicle: water) was 151 % of control [survivor count not shown]. The T/C (dose: 100.0 mg/kg/injection, schedule: Q01DX009 (ip), vehicle: saline) was 87 % of control and the T/C (dose: 100.0 mg/kg/injection, schedule: Q01DX009 (ip), vehicle: water) was 164 % of control [survivor count not shown].
